This is an account of results in article PMC5805695.

The chains behind the UniProt entries cited, without tags or fusion partners.
UniProt Q9Y7M4: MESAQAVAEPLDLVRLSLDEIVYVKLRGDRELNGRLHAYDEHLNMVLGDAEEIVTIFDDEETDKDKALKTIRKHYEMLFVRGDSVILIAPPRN

No constants are given. Whether binding was seen depends on the method and setting. Binding seen in cells or lysates may run through a third protein.

In this test the target is T1, Pof8-∆[289–402] (C-terminal truncation removing the entire xRRM domain) (S. pombe) (UniProt O13795).
T1 sequence: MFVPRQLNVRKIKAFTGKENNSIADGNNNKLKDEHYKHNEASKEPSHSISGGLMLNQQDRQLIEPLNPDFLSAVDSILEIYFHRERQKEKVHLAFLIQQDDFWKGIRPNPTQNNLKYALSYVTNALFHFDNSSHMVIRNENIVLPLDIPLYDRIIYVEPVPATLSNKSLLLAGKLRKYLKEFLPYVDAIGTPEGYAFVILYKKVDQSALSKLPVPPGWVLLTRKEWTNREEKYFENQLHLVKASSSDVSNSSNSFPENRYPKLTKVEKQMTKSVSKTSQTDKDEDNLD
The experiment in a line: co-IP; S. pombe cell lysates (50 mM Tris pH 8.0, 150 mM NaCl, 10% glycerol, 5 mM EDTA, 0.5% NP-40); immunoprecipitation with monoclonal anti-myc 9B11 and Dynabeads Protein G; western blot with anti-myc or anti-V5/PK; also mock treatment without RNase A.

Regarding “Lsm3 (subunit of the Lsm2-8 complex) (from UniProt Q9Y7M4 1-93)”, the binding entry is “no binding”.
